The values that follow come from the supplement of paper PMC10849652.

Protein sequences, listed by entry. Tags and fused reporters are not part of them. Lines headed by an entry give the natural chain unless they say otherwise; changes in a name come on top.
UniProt P60900, whole entry, looked up: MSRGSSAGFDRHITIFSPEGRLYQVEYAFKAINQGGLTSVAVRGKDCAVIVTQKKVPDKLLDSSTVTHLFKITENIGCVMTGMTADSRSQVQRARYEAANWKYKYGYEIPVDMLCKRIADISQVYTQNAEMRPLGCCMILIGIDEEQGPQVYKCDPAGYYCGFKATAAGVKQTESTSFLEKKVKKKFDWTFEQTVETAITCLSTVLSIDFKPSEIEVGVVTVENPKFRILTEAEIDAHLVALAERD
UniProt Q8NDX1: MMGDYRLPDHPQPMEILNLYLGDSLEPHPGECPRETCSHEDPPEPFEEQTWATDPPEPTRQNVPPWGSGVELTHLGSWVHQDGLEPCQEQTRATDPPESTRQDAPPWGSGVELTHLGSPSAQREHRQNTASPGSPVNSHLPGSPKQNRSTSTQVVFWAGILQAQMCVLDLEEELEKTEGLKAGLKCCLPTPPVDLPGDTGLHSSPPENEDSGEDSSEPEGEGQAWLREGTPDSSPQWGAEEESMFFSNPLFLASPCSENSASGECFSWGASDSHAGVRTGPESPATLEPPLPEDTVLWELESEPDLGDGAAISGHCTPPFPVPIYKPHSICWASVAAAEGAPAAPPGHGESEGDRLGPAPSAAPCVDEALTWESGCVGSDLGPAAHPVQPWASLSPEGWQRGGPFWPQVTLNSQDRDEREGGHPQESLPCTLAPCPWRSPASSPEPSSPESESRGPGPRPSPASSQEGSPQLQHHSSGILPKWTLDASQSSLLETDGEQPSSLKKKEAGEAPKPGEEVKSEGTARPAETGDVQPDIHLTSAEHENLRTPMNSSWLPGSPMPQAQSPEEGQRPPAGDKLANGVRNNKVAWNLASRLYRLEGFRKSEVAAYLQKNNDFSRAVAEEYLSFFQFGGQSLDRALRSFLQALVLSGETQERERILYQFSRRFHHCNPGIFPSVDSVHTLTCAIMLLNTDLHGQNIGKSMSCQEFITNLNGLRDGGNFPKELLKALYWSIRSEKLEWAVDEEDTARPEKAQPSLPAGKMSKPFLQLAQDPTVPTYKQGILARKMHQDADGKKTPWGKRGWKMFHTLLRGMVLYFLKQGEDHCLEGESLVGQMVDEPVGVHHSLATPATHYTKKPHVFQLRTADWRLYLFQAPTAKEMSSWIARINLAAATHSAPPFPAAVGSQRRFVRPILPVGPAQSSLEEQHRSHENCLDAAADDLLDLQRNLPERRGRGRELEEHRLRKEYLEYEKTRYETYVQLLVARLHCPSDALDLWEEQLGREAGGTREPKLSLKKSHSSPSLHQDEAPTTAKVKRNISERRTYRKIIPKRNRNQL
UniProt P07602: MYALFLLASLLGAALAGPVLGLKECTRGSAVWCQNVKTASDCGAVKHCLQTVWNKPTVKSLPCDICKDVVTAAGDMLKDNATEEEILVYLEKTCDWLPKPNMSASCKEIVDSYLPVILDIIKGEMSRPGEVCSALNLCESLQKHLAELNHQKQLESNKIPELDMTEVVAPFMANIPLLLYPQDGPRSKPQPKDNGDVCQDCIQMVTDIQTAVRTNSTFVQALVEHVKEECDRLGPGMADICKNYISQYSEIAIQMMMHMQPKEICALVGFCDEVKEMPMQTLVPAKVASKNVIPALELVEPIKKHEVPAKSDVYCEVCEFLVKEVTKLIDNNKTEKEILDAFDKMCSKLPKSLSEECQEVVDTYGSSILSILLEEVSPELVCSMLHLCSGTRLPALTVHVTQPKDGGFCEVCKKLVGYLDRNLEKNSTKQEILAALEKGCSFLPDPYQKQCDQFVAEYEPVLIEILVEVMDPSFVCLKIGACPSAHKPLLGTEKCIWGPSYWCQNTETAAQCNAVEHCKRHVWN
UniProt Q05209: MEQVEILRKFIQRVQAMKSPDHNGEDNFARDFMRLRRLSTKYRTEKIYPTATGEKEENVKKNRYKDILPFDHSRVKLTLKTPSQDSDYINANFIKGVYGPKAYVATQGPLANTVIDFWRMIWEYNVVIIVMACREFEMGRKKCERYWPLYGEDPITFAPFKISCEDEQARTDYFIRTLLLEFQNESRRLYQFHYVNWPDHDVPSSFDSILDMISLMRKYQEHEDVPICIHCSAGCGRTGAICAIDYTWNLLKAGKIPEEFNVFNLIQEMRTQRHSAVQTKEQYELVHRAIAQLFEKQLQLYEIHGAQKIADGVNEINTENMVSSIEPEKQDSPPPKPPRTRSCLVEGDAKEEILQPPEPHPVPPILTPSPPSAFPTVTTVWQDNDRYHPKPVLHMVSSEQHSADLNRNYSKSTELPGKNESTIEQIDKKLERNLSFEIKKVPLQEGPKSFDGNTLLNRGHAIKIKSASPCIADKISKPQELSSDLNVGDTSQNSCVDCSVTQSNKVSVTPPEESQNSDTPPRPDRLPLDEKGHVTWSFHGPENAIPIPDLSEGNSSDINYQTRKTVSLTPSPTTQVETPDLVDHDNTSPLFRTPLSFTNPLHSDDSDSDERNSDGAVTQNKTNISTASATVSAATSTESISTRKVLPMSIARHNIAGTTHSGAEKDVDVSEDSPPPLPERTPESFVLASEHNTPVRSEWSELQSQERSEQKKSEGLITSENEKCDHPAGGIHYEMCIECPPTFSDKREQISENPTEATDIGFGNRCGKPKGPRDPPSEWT
UniProt Q9UKA9: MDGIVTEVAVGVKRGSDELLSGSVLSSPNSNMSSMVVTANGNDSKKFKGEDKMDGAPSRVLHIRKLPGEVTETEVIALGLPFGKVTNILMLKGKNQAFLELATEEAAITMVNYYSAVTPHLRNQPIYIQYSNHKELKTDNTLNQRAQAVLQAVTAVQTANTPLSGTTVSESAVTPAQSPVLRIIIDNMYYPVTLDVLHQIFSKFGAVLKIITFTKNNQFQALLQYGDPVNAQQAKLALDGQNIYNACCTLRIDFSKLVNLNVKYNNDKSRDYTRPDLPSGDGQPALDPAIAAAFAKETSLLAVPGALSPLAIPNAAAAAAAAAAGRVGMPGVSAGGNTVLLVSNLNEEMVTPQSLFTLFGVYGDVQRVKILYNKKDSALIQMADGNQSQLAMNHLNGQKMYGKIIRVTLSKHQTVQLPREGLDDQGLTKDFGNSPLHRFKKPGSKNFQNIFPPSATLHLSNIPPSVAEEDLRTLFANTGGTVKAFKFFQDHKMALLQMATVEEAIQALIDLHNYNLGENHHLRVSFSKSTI
UniProt Q8WUK0: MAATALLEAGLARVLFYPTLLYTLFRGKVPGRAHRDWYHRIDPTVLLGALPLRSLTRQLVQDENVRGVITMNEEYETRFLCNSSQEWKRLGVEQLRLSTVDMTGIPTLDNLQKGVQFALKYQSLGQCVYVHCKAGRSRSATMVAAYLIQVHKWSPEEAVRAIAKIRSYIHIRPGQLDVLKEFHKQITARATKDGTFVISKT
UniProt P17706: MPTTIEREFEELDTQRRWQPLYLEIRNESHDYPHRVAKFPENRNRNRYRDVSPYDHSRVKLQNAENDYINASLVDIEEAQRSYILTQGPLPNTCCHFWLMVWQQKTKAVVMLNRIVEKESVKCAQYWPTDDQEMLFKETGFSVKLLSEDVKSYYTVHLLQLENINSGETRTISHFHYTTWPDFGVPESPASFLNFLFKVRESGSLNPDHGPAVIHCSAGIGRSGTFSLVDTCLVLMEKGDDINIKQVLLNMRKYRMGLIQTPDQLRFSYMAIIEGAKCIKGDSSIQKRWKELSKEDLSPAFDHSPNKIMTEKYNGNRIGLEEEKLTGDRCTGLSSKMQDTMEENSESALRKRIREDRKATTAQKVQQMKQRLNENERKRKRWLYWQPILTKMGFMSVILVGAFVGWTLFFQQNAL

The list shows a part of the results.

What all share (assay): log2 fold change, soluble protein after heating vs DMSO (PISA); higher = thermal stabilisation; K562 lysate, 10 uM; active = over 0.2 and 3.5 SD of the protein, either way, in both replicates (recomputed)
Compound in assay [1]: NCC(=O)Nc1ccc(-n2nc(C(F)(F)F)cc2-c2ccc3c(ccc4ccccc43)c2)cc1
The method, boiled down: (§1)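 Dounce homogenisation of K562 pellets in PBS pH 7.4 with 1 mM MgCl2 produced a crude extract, used at 1 mg/mL protein. Exposure to 10 μM compound lasted 30 min, and aliquots were then heated for 3 min across 48°C-58°C, pooled and brought to 0.5% NP-40 at 4°C. The supernatant after 21,000xg for 90 min was quantified by TMTpro 16plex LC-MS/MS with channel sums equalised. Duplicate values are given as log-two fold change in thermal stability relative to solvent controls.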

Compound in assay [2]: O=C(CCCCCCC(=O)Nc1ccccc1)NO [vorinostat]
The procedure, abridged: as §1

Compound in assay [3]: O=C(O)c1ccc2c(c1)nc(Nc1cccc(Cl)c1)c1ccncc12 [silmitasertib]
The method, boiled down:
as §1

Compound in assay [4]: O=C1NC(=O)C(c2cnc3ccccn23)=C1c1cn2c3c(cc(F)cc13)CN(C(=O)N1CCCCC1)CC2
The procedure, abridged: as §1

Compound in assay [5]: c1cn2cc(-c3ccc4cn[nH]c4c3)nc(Nc3ccc(N4CCOCC4)cc3)c2n1 [entospletinib]
The procedure, abridged: as §1

For the target PSMB2, A0A087WVV1, the log2 fold change is inactive: 0.023 in assay [1]; inactive: 0.051 in assay [2]; inactive: 0.071 in assay [3]; inactive: 0.172 in assay [4]; inactive: -0.069 in assay [5].

Consider PSMA6 (UniProt P60900), for which the log2 fold change is inactive: 0.001 in assay [1]; inactive: 0.127 in assay [2]; inactive: -0.013 in assay [3]; inactive: 0.01 in assay [4]; inactive: 0.024 in assay [5].

In the case of PSD4 (UniProt Q8NDX1), the log2 fold change in assay [1] is inactive: 0.046; in assay [2], inactive: -0.164; in assay [3] it was inactive: 0.039; in assay [4] it was inactive: 0.052; in assay [5], inactive: -0.017.

On to PSAP isoform 3 (UniProt P07602), for which the log2 fold change in assay [1] is inactive: -0.021; in assay [2], inactive: 0.108; in assay [3] it was inactive: -0.007; in assay [4], inactive: 0.013; in assay [5], inactive: -0.066.

For the target PTPN12 (UniProt Q05209), the log2 fold change in assay [1] is inactive: -0.001; in assay [2] it was inactive: -0.06; in assay [3], inactive: -0.004; in assay [4] it was inactive: -0.002; in assay [5], inactive: 0.02.

For the target PTBP2 isoform 2 (UniProt Q9UKA9), the log2 fold change was inactive: -0.022 in assay [1]; inactive: -0.009 in assay [2]; inactive: -0.024 in assay [3]; inactive: 0.006 in assay [4]; inactive: -0.09 in assay [5].

As to PTPMT1 (UniProt Q8WUK0), the log2 fold change was inactive: -0.091 in assay [1]; inactive: -0.159 in assay [2]; inactive: 0.015 in assay [3]; inactive: -0.031 in assay [4]; inactive: 0.048 in assay [5].

With PTPN2 (UniProt P17706), the log2 fold change in assay [1] is inactive: -0.005; in assay [2] it was active: -0.298; in assay [3], inactive: 0.024; in assay [4], inactive: -0.002; in assay [5], inactive: 0.07.

As to PRPS1 (UniProt B1ALA9), the log2 fold change was inactive: -0.005 in assay [1]; inactive: -0.119 in assay [2]; inactive: 0.013 in assay [3]; inactive: -0.014 in assay [4]; inactive: -0.003 in assay [5].
